# Assay results: PMC7819943, “Rice protein-binding microarrays: a tool to detect cis-acting elements near promoter regions in rice”
# This is one part of the list.
# Target: T1, OsSMF1 (Oryza sativa, UniProt Q6ZLB0 1-436)
# T1 sequence: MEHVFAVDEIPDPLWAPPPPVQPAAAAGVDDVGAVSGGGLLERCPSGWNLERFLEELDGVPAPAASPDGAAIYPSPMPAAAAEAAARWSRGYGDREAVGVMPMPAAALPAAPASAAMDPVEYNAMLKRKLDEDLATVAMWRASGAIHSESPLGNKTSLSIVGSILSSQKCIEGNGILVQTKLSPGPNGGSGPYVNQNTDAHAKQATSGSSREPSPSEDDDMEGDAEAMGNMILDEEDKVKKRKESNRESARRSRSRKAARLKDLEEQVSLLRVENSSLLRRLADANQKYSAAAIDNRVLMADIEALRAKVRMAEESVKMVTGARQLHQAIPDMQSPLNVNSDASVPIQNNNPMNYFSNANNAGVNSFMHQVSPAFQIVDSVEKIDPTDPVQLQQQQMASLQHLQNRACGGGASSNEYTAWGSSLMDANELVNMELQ
# Assay: protein-binding microarray (RPBM); PBS, 2% BSA, 51.3 ng/ul salmon testes DNA, 50 uM zinc acetate, 200 nM TF, 25 C, 1 h; high values mean tight binding
# Conditions: protein: recombinant; tags: N-terminal polyhistidine and DsRed monomer fusion (pET32a); chain copies: 2; label: CyDye5-dUTP incorporated in the synthesized complementary strand; 3' TTTTT single-stranded linker to array surface; dsDNA, one strand shown
# Outline: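 A custom Agilent array was converted to double-stranded form by primer extension with Cy5-dUTP and blocked with 2% BSA. Protein at 200 nM in PBS with 2% BSA, salmon testes DNA and 50 µM zinc acetate was applied for 1 h at 25 °C, followed by washing. The proteins were polyhistidine–DsRed N-terminal fusions of transcription factors, expressed in E. coli BL21-CodonPlus and Ni–NTA-purified. The binding signal is per-feature fluorescence intensity (arbitrary units) from an Axon 4000B scanner.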
row,Sequence,binding signal
1,AGCCCCACGCTCCGTCACACGCTGACTCAGCCGCCACGTACGGAGTCACCTAGTGCAG,25400 fluorescence intensity (a.u.)
2,TCATCCCAGCCGTCCACCTAATCCGACGCTCCAAACCCCACGGAGTCACCTAGTGCAG,3620 fluorescence intensity (a.u.)
3,CGCATGGATCCTAATGCGAATCTGACGTCTCTCCACTTGACGGAGTCACCTAGTGCAG,4210 fluorescence intensity (a.u.)
4,GGAGGTTAAGTGGACTTATTCCACCACCTCACGGGGTTTACGGAGTCACCTAGTGCAG,3520 fluorescence intensity (a.u.)
5,CCGAAAAGCGCCCGCAAACCCGCGTCGCGTCACCATGCCACGGAGTCACCTAGTGCAG,6300 fluorescence intensity (a.u.)
6,TGGGAAAAGGGAGTATAGAACACACCCTAATTCTTTAATACGGAGTCACCTAGTGCAG,30300 fluorescence intensity (a.u.)
7,ATATCTATCTGACATGTCACTTTAGTGTTCATGTGGCATGCGGAGTCACCTAGTGCAG,8720 fluorescence intensity (a.u.)
8,ACTCTTTATATCATCACCACAGATTCTCCCTCCACTTATACGGAGTCACCTAGTGCAG,3860 fluorescence intensity (a.u.)
9,GGATGCTAAGGTGTTTTGCTTACTCATGCTCCAAAATAGTCGGAGTCACCTAGTGCAG,7420 fluorescence intensity (a.u.)
10,ACTTGCGAGAAGAACTTCAGGGTGTGACACATGCCATGCGCGGAGTCACCTAGTGCAG,4350 fluorescence intensity (a.u.)
11,GCGCCTACGAGAGCACGCGGTGCGACGTGTGCGGGTCCGGCGGAGTCACCTAGTGCAG,3720 fluorescence intensity (a.u.)
12,TCTGTCTGTGGGTTGTATGAGCTGTCTTTATATCCGTCTGCGGAGTCACCTAGTGCAG,4120 fluorescence intensity (a.u.)
13,TACGGACTCCAAGACGCAGCGTGTGTATGACAGGTGGGACCGGAGTCACCTAGTGCAG,4250 fluorescence intensity (a.u.)
14,ATGATGTATGGCATGTTCTAGACTGTGCCACCGTTTGGAGCGGAGTCACCTAGTGCAG,3200 fluorescence intensity (a.u.)
15,AGTTAAGGGAGTCAGAGTGAACTTATTCCTCTATCAGCAGCGGAGTCACCTAGTGCAG,21600 fluorescence intensity (a.u.)
16,TGAATGACATGATTCGGCGTAACGTGACTGTCCCATTATCCGGAGTCACCTAGTGCAG,4070 fluorescence intensity (a.u.)
17,AACTTATACGTATAACCTTTATATACGTGTCCTTAACGATCGGAGTCACCTAGTGCAG,4720 fluorescence intensity (a.u.)
18,TCCATAAACATGCAAGACCAAATTCAACTTCTACAAGTTGCGGAGTCACCTAGTGCAG,3430 fluorescence intensity (a.u.)
19,GTGGTGATTTCATCAATTTTAAGATACGCCGGCTCGGTTTCGGAGTCACCTAGTGCAG,25600 fluorescence intensity (a.u.)
20,TGGGGCCGGATCGACCCGGGCCCACGTGTCAGCGTCTCCGCGGAGTCACCTAGTGCAG,15000 fluorescence intensity (a.u.)
21,TCTACACCTATTGTGATGTGGAATAATTCTCCTCAAACCTCGGAGTCACCTAGTGCAG,3230 fluorescence intensity (a.u.)
22,ACGGTAGGAGCTGCAGCGGTCGGGGTGGGAGCAGGGGTCGCGGAGTCACCTAGTGCAG,3440 fluorescence intensity (a.u.)
23,TCCACCCTCGCCGTGTCAAAGGACTCCAATGCGTCACAAACGGAGTCACCTAGTGCAG,3420 fluorescence intensity (a.u.)
24,GCCCGACGGTGACTGGACTCACTTAGCGGTGACTGGTTCGCGGAGTCACCTAGTGCAG,7480 fluorescence intensity (a.u.)
25,ATTGAGTACTAGTCCTGAATTTGATGACGTTTATCTTATCCGGAGTCACCTAGTGCAG,6860 fluorescence intensity (a.u.)
26,GTAATTGTATATGTGGATCACGTCACCTAGATTTACTTAACGGAGTCACCTAGTGCAG,3810 fluorescence intensity (a.u.)
27,GTCCCTCCATGCACGCCCAAATAGCCAGTCACCTCCGCTCCGGAGTCACCTAGTGCAG,3360 fluorescence intensity (a.u.)

row,Sequence,binding signal
1,TGATTAGTTCAGGTGGTGGTTTGGGCCTGTTGCAACGTGGCGGAGTCACCTAGTGCAG,5090 fluorescence intensity (a.u.)
2,CTATATTGTTCATGCCCTCGTGCGCGTACACAATCATAGTCGGAGTCACCTAGTGCAG,3360 fluorescence intensity (a.u.)
3,GTCCGAGACTCCGAGTCCACCTCTGCCACTGCCACGACGCCGGAGTCACCTAGTGCAG,4880 fluorescence intensity (a.u.)
4,AGATCTGCACAACCATAACGGCTAAAGAGGAGATACCAAACGGAGTCACCTAGTGCAG,65500 fluorescence intensity (a.u.)
5,AAGATCAATCTGAAGAGTAGGCTCCACGTGTAGATGGGGACGGAGTCACCTAGTGCAG,8830 fluorescence intensity (a.u.)
6,ACTAGTAATGCCACGCATCGTATTATCCAATCTGAGATACCGGAGTCACCTAGTGCAG,4560 fluorescence intensity (a.u.)
7,GGTGACGGCTGGTGTGGGTGTAGGGTGGCCGCGCGGTACGCGGAGTCACCTAGTGCAG,19900 fluorescence intensity (a.u.)
8,AGCATTAAAATGTGGACGAAAGAAACTAATTGCATAGTTTCGGAGTCACCTAGTGCAG,13600 fluorescence intensity (a.u.)
9,CTGATCGCGTCACTTTACGCGTGAAATTTCGTAATAAAGGCGGAGTCACCTAGTGCAG,3740 fluorescence intensity (a.u.)
10,CCTGGTTGGTTTGGCTCGCACGTGGCGCGTCGTCCTACGCCGGAGTCACCTAGTGCAG,5510 fluorescence intensity (a.u.)
11,GATGGATTACCATATTGCATCATCACTCATCAGTAAGAAACGGAGTCACCTAGTGCAG,3710 fluorescence intensity (a.u.)
12,GCATCTTTGGAGCGTTTGTAGGAGGACACGTGGCGGCTTACGGAGTCACCTAGTGCAG,13700 fluorescence intensity (a.u.)
13,GCAGTGGATCCAGTTGACGGTTGCAAGAGGAAGATGCTTACGGAGTCACCTAGTGCAG,3350 fluorescence intensity (a.u.)
14,AATTTCTAGTATTACAGTTGAGGGATACAATTTAGATTCACGGAGTCACCTAGTGCAG,25000 fluorescence intensity (a.u.)
15,CGTCCCGCACTCCGTCAACACCTCGTCGGCGCTCAACTTCCGGAGTCACCTAGTGCAG,4590 fluorescence intensity (a.u.)
16,CAGCTGTGATGTTTAACAATATGCTATCTGGCACATGCACCGGAGTCACCTAGTGCAG,32100 fluorescence intensity (a.u.)
17,TGATACGATGACGTTTGGGTGGTTGGATATATATCATGATCGGAGTCACCTAGTGCAG,5350 fluorescence intensity (a.u.)
18,ATAAAAGAGAAGAGCAGCAGGCCAGCTGCAGGACGGACTTCGGAGTCACCTAGTGCAG,3820 fluorescence intensity (a.u.)
19,CCCGGAACGAGATCGTCTGACGTTTCTTCCCCATCTCTCGCGGAGTCACCTAGTGCAG,4480 fluorescence intensity (a.u.)
20,AAAGAAATATTCGTTGTCATCTGAATCATGCAGATCGATCCGGAGTCACCTAGTGCAG,4080 fluorescence intensity (a.u.)
21,TTTCTTACTACCCAGTGCTAAAAGAGTATTACACGTTAGGCGGAGTCACCTAGTGCAG,3140 fluorescence intensity (a.u.)
22,CACCACGACGAACCCCAACGCGAGCGAGCGGGAGGTGGCGCGGAGTCACCTAGTGCAG,15400 fluorescence intensity (a.u.)
23,AGTATCACAATATGAGTACATTAGCTTATGCACCTCCCATCGGAGTCACCTAGTGCAG,27400 fluorescence intensity (a.u.)
24,CGTGACCTTGTTTGTATATCCACATACGCGAGTTCACATCCGGAGTCACCTAGTGCAG,3340 fluorescence intensity (a.u.)
25,CAAGCTCATCAACTTCGTTCGGTCCAAGGTGCGTCAGGGTCGGAGTCACCTAGTGCAG,3180 fluorescence intensity (a.u.)
26,CTAAATGATCTCTTTATTAATCCCTTGTACACCTGTAACCCGGAGTCACCTAGTGCAG,19800 fluorescence intensity (a.u.)
27,GTGCCATCTAAGCGTCACGTCAAACACCACATACCAGGTCCGGAGTCACCTAGTGCAG,3140 fluorescence intensity (a.u.)

# Reformatted tab-delimited: part of the list above
row	Sequence	binding signal
16	CAGCTGTGATGTTTAACAATATGCTATCTGGCACATGCACCGGAGTCACCTAGTGCAG	32100 fluorescence intensity (a.u.)
17	TGATACGATGACGTTTGGGTGGTTGGATATATATCATGATCGGAGTCACCTAGTGCAG	5350 fluorescence intensity (a.u.)
18	ATAAAAGAGAAGAGCAGCAGGCCAGCTGCAGGACGGACTTCGGAGTCACCTAGTGCAG	3820 fluorescence intensity (a.u.)
19	CCCGGAACGAGATCGTCTGACGTTTCTTCCCCATCTCTCGCGGAGTCACCTAGTGCAG	4480 fluorescence intensity (a.u.)
20	AAAGAAATATTCGTTGTCATCTGAATCATGCAGATCGATCCGGAGTCACCTAGTGCAG	4080 fluorescence intensity (a.u.)
21	TTTCTTACTACCCAGTGCTAAAAGAGTATTACACGTTAGGCGGAGTCACCTAGTGCAG	3140 fluorescence intensity (a.u.)
22	CACCACGACGAACCCCAACGCGAGCGAGCGGGAGGTGGCGCGGAGTCACCTAGTGCAG	15400 fluorescence intensity (a.u.)
23	AGTATCACAATATGAGTACATTAGCTTATGCACCTCCCATCGGAGTCACCTAGTGCAG	27400 fluorescence intensity (a.u.)
24	CGTGACCTTGTTTGTATATCCACATACGCGAGTTCACATCCGGAGTCACCTAGTGCAG	3340 fluorescence intensity (a.u.)
25	CAAGCTCATCAACTTCGTTCGGTCCAAGGTGCGTCAGGGTCGGAGTCACCTAGTGCAG	3180 fluorescence intensity (a.u.)
26	CTAAATGATCTCTTTATTAATCCCTTGTACACCTGTAACCCGGAGTCACCTAGTGCAG	19800 fluorescence intensity (a.u.)
